Drawing on publication PMC5057313, this text covers binding for 3 molecules.

Assay [1] concerns the target MjTTL5-cYFP-HA (pSPYCE-ttl5), expressed in tobacco leaves (Meloidogyne javanica). Kind of assay: co-IP; MjTTL5-cYFP-HA or GFP-HA coexpressed with AtFTRc-nYFP-myc in agroinfiltrated tobacco leaves; proteins extracted at 48 h; precipitate probed with anti-myc antibody.
Assay [2] has as its target MjTTL5-cYFP-HA, expressed in tomato root protoplasts (Meloidogyne javanica). The assay can be described thus: split reporter; BiFC with nYFP and cYFP fusions cotransformed into tomato root protoplasts expressing the plastid marker AtNTRc-mCherry; images 24 h after cotransformation.
The target of assay [3] is NULG1a-cYFP-HA. The assay can be described thus: split reporter.
Assay [4] concerns the target MiTTL5 (TTL5 of Meloidogyne incognita), bait in pGBK (Meloidogyne incognita). The assay can be described thus: two-hybrid; bait (pGBKT7) and prey (pGADT7) cotransformed into S. cerevisiae AH109; growth and blue colour on SD/-leu-trp-his-ade + x-α-gal agar medium.
Assay [5] addresses RsTTL3 (Radopholus similis), bait in pGBK (Radopholus similis). The assay is described as above.
Assay [6] concerns the target MjTTL3 (Meloidogyne javanica), bait in pGBK (Meloidogyne javanica). The assay is described as above.
Assay [7] addresses RsTTL2 (Radopholus similis), bait in pGBK (Radopholus similis). Described as above.
Assay [8] has as its target MjTTL2 (Meloidogyne javanica), bait in pGBK (Meloidogyne javanica). Described as above.
Assay [9] addresses RsTTL5 (TTL5 of Radopholus similis), bait in pGBK (Radopholus similis). Described as above.
Assay [10] concerns the target MjTTL5 (transthyretin-like protein 5 of Meloidogyne javanica), bait in pGBKT7 (Meloidogyne javanica). The description is as above.
For assay [11], the target named is MjTTL4 (Meloidogyne javanica), bait in pGBK (Meloidogyne javanica). Described as above.
In assay [12] the target is MjTTL1 (Meloidogyne javanica), bait in pGBK (Meloidogyne javanica). The description is as above.
For assay [13], the target named is MeTTL5 (TTL5 of Meloidogyne enterolobii), bait in pGBK (Meloidogyne enterolobii). The assay is described as above.
Assay [14] deals with RsTTL1 (Radopholus similis), bait in pGBK (Radopholus similis). Described as above.
The target in assay [15] is RsTTL4 (Radopholus similis), bait in pGBK (Radopholus similis). Described as above.
Assay [16] addresses CeTTL (transthyretin-like protein of Caenorhabditis elegans), bait in pGBK (Caenorhabditis elegans). Described as above.
The target of assay [17] is MjTTL5 (transthyretin-like protein 5 of Meloidogyne javanica), bait in pGBKT7 (Meloidogyne javanica). The assay can be described thus: two-hybrid; α-galactosidase (x-α-gal) quantitative assay of yeast cotransformants; five independent colonies.
Assay [18] addresses MjTTL5 truncated derivative Del7 (amino acids 63-110) (Meloidogyne javanica). The assay is described as above.

No constants are given. Whether binding was seen depends on the method and setting. For part of these data: Binding can be weak; no strength is given. For part of these data: Binding seen in cells or lysates may run through a third protein. For part of these data: Where a sequence is shown, tags or fusion partners need not be part of it.

B1: AtFTRc-nYFP-Myc (in pSPYNE), expressed in tobacco leaves (protein, UniProt Q9SJ89 32-146)
chain: AKTEPSEKSVEIMRKFSEQYARRSGTYFCVDKGVTSVVIKGLAEHKDSYGAPLCPCRHYDDKAAEVGQGFWNCPCVPMRERKECHCMLFLTPDNDFAGKDQTITSDEIKETTANM
In the case of B1, the binding entry in assay [1] is recorded as “binds”.

B2: AtFTRc-nYFP-Myc, expressed in tomato root protoplasts (protein, UniProt Q9SJ89 32-146)
chain: B1 chain
Consider B2, for which the binding result is “binds” in assay [2] and “no binding” in assay [3].

B3: Arabidopsis ferredoxin : thioredoxin reductase catalytic subunit (AtFTRc), prey in pGADT7 (protein, UniProt Q9SJ89 1-146)
chain: MNLQAVSCSFGFLSSPLGVTPRTSFRRFVIRAKTEPSEKSVEIMRKFSEQYARRSGTYFCVDKGVTSVVIKGLAEHKDSYGAPLCPCRHYDDKAAEVGQGFWNCPCVPMRERKECHCMLFLTPDNDFAGKDQTITSDEIKETTANM
In the case of B3, the binding result in [4] is “binds”; in assay [5] it was “no binding”; in assay [6], “no binding”; in assay [7], “no binding”; in [8], “no binding”; in assay [9] it was “binds”. Also, the binding entry is reported as “binds” in assay [10]; “no binding” in [11]; “no binding” in assay [12]; “binds” in [13]; “no binding” in assay [14]; “no binding” in assay [15]. The binding result in assay [16] was “no binding”; in assay [17], “binds”; in assay [18] it was “binds”.
